These are yes or no findings as the source states them, for the method shown. A result given as binding can be weak or reduced; the word gives no strength.
Target: GST-XTACC3 (full-length Xenopus TACC3, maskin) (Xenopus laevis) (UniProt Q9PTG8)
Assay: pull-down; in vitro GST pull-down: 5-10 ug GST recombinant protein on anti-GST coated beads, 0.25 uM His-AurA in kinase buffer (20 mM Hepes pH 7.5, 200 mM KCl, 30 mM MgCl2, 0.5 mM EGTA, 1 mM DTT, 0.05% Triton X-100, 1 mg/ml BSA), 30 mins at 22 C; Western blot; both purified

By UniProt entry, the sequences of proteins in these tests, tags left out. Where a name states a change or a piece, a line headed by the entry shows the natural chain unless it says otherwise.
UniProt Q9PTG8: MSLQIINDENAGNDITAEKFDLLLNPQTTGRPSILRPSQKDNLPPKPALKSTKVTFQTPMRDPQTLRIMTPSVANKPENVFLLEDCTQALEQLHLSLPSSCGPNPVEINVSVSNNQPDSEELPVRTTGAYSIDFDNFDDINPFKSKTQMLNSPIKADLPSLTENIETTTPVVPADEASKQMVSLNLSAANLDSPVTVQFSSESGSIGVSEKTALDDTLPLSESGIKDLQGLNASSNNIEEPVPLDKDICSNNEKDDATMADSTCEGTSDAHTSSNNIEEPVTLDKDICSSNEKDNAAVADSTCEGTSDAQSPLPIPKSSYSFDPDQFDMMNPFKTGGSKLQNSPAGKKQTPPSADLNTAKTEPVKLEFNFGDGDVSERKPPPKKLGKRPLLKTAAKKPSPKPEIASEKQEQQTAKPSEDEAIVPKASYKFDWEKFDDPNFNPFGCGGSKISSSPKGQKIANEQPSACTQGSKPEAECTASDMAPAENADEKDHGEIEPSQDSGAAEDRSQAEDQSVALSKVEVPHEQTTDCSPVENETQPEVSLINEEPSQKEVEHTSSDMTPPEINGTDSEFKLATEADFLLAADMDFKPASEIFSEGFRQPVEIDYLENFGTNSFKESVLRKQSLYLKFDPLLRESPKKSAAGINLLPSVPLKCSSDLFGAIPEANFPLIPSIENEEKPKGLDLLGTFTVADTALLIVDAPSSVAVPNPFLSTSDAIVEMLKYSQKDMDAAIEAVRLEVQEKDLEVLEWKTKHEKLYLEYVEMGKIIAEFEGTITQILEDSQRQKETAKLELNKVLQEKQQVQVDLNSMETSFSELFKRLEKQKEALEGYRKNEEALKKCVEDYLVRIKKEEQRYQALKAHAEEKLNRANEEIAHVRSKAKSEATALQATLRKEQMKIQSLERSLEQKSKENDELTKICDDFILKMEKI
UniProt Q91820: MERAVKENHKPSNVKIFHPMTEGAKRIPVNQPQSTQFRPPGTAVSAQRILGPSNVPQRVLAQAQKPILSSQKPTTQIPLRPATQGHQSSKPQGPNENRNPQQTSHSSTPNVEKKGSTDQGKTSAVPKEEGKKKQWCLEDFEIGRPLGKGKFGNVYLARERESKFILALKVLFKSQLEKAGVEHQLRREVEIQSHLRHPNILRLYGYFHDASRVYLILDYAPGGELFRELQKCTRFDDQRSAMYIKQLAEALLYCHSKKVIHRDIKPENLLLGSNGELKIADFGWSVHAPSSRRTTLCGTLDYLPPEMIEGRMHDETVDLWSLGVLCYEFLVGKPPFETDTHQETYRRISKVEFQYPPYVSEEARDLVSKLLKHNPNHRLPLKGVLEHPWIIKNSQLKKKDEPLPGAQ

binding: binds
Substance: His-AurA–KD (Xenopus Aurora A, kinase dead) (from UniProt Q91820) (enzyme)
